Results reported in patent US11565003B2, “Mechanical opening of lipid bilayers by molecular nanomachines” (William Marsh Rice University, priority 2016, dated 2023).
Some results were stated once for a whole list of compounds, not compound by compound. For part of these data: At least one compound was matched to its structure with a doubt left. Starred links: 1 amine or outer side, 2 acyl side, 3 side chain; linkers in the order of their positions; H or OH if unused. Positions of bridges follow the written chain, without caps; N, C: chain ends. Residues, ends and D or L forms follow the SMILES beside them. Chains are numbered I, II in the order given. *: point of attachment. X2 = C[C@@H]1Cc2ccc3ccccc3c2C1=C1c2cc(C#CCCn3cc(C(=O)[*:1])nn3)ccc2Sc2ccc(C#CCCn3cc(C(=O)[*:2])nn3)cc21; X1 = C[C@@H]1Cc2ccc3ccccc3c2/C1=C1\c2cc(C#CCCN=[N+]=[N-])ccc2Sc2ccc(C#CCCn3cc(C(=O)*)nn3)cc21

Legend:
NIH 3T3 cells = assay: Uptake, localization and toxicity of fluorescent nanomachines without UV-light exposure; format: cell-based, mouse; conditions: NIH 3T3, motors not UV-activated
Protocol: (§1) Following the synthetic bilipid vesicle experiments, nanomechanical action upon live cells was studied using confocal microscopy aided by a super-resolution technique called Phase Modulation Nanoscopy. Applicants used two experimental methods. In the first method (Method A), the molecular motors were loaded into the cell media and the imaging was initiated within 5 minutes to 24 hours. In the second method, (Method B), the molecular motors were loaded into the cell media, incubated for 30 minutes to 24 hours, and then washed three times with fresh molecular motor-free media before imaging.
Applicants first studied the effect of the nanomachines on the cells without UV-light exposure. […] However, due to 1 and 2 having well-pronounced visible fluorescence properties corresponding to the cy5 and BODIPY addends (FIGS. 5A-B and Table 1, respectively), their intracellular uptake, motion or protein/organelle-assisted trafficking are clearly observed. The two luminescent compounds display very different localization patterns.
Applicants undertook a series of control experiments to confirm active molecular motor uptake and suspected endocytosis, using a range of nanomachine loading concentrations (0.10-1.00 μM, Method A) and incubation times of 5-60 minutes at 4° C., which is a temperature of general endocytosis inhibition.

PC-3 cells = assay: UV-activated nanomechanical necrosis, live cell confocal microscopy, PC-3; format: cell-based, human; conditions: targeted PC-3 cells
Protocol: as §1
Next, Applicants used the smaller nanomachine, 3. Initial control experiments (blank) were performed without nanomachines being present. […] The UV-induced necrosis reaches final stages at approximately scan 40 (corresponding to 600 seconds) that is consistent with characteristic extracellular membrane rupture and homogenous cytosolic auto-fluorescence, indicating loss of cellular organelle boundaries. […]
All experimental imaging parameters (i.e., laser beam size, confocal pinhole size, laser intensity, line scanning speed, scanning area (field of view, FOV), and line averaging sequences) were kept constant throughout the experiments. The accuracy and errors associated with the establishment of accelerated necrosis are determined based on one dual channel imaging sequence, which takes 15 seconds in total. […]

Structure (SMILES)	Cell viability (NIH 3T3 cells)	faster onset of necrosis than molecular-motor-free UV-exposed cells (PC-3 cells)
CC1=CC(C)=[N+]2C1=C(c1ccccc1C(=O)OCc1cn(CCC#Cc3ccc4c(c3)C(=C3c5c(ccc6ccccc56)C[C@H]3C)c3cc(C#CCCn5cc(COC(=O)c6ccccc6C6=C7C(C)=CC(C)=[N+]7[B-](F)(F)n7c(C)cc(C)c76)nn5)ccc3S4)nn1)c1c(C)cc(C)n1[B-]2(F)F (racemic) [Compound 2]	> 90%	
CC(C)[C@H](NC(=O)[C@H](CCCNC(=N)N)NC(=O)[C@@H](NC(=O)[C@H](CC(N)=O)NC(=O)[C@H](CO)NC(=O)c1cn(CCC#Cc2ccc3c(c2)/C(=C2/c4c(ccc5ccccc45)C[C@H]2C)c2cc(C#CCCN=[N+]=[N-])ccc2S3)nn1)[C@@H](C)O)C(=O)N[C@@H](C)C(=O)N1CCC[C@H]1C(=O)O [Compound 10] (X1-SNTRVAP-OH)		40-50%
CC(C)[C@H](NC(=O)[C@H](CCCNC(=N)N)NC(=O)[C@@H](NC(=O)[C@H](CC(N)=O)NC(=O)[C@H](CO)NC(=O)c1cn(CCC#Cc2ccc3c(c2)C(=C2c4c(ccc5ccccc45)C[C@H]2C)c2cc(C#CCCn4cc(C(=O)N[C@@H](CO)C(=O)N[C@@H](CC(N)=O)C(=O)N[C@H](C(=O)N[C@@H](CCCNC(=N)N)C(=O)N[C@H](C(=O)N[C@@H](C)C(=O)N5CCC[C@H]5C(=O)O)C(C)C)[C@@H](C)O)nn4)ccc2S3)nn1)[C@@H](C)O)C(=O)N[C@@H](C)C(=O)N1CCC[C@H]1C(=O)O [Compound 9] (I: SNTRVAP-OH / II: SNTRVAP-OH; linker I:N-II:N via X2)		40-50%
